We go through 10 molecules from patent US12729225B2, “Non-canonical SWI/SNF complex and uses thereof” (Dana-Farber Cancer Institute, Inc., priority 2018, dated 2026).

In the series the test system is mSWI/SNF complexes. The series can be described thus: mSWI/SNF complex purification with HA-tagged baits and mass spectrometry (peptide counts). Also noted: species or system human. The following applies: 293_HA-BRD7 bait purification, mass spectrometry; for Total: total peptide count per identified protein; for Unique: unique peptide count per identified protein.

B1: PRDX6 (protein, UniProt P30041 2-224, looked up)
Peroxiredoxin-6: PGGLLLGDVAPNFEANTTVGRIRFHDFLGDSWGILFSHPRDFTPVCTTELGRAAKLAPEFAKRNVKLIALSIDSVEDHLAWSKDINAYNCEEPTEKLPFPIIDDRNRELAILLGMLDPAEKDEKGMPVTARVVFVFGPDKKLKLSILYPATTGRNFDEILRVVISLQLTAEKRVATPVDWKDGDSVMVLPTIPEEEAKKLFPKGVFTKELPSGKKYLRYTPQP
B1 had a Total of 1 and a Unique of 1.

B2: HMGB3 (protein, UniProt O15347 1-200, looked up)
High mobility group protein B3: MAKGDPKKPKGKMSAYAFFVQTCREEHKKKNPEVPVNFAEFSKKCSERWKTMSGKEKSKFDEMAKADKVRYDREMKDYGPAKGGKKKKDPNAPKRPPSGFFLFCSEFRPKIKSTNPGISIGDVAKKLGEMWNNLNDSEKQPYITKAAKLKEKYEKDVADYKSKGKFDGAKGPAKVARKKVEEEDEEEEEEEEEEEEEEDE
In turn, B2 registered a Total of 1 and a Unique of 1.

B3: SRSF10 (protein, UniProt O75494 1-262, looked up)
Serine/arginine-rich splicing …: MSRYLRPPNTSLFVRNVADDTRSEDLRREFGRYGPIVDVYVPLDFYTRRPRGFAYVQFEDVRDAEDALHNLDRKWICGRQIEIQFAQGDRKTPNQMKAKEGRNVYSSSRYDDYDRYRRSRSRSYERRRSRSRSFDYNYRRSYSPRNSRPTGRPRRSRSHSDNDRFKHRNRSFSRSKSNSRSRSKSQPKKEMKAKSRSRSASHTKTRGTSKTDSKTHYKSGSRYEKESRKKEPPRSKSQSRSQSRSRSKSRSRSWTSPKSSGH
In turn, B3 displayed a Total of 1 and a Unique of 1.

B4: VAPA (protein, UniProt Q9P0L0 2-249, looked up)
Vesicle-associated membrane …: ASASGAMAKHEQILVLDPPTDLKFKGPFTDVVTTNLKLRNPSDRKVCFKVKTTAPRRYCVRPNSGIIDPGSTVTVSVMLQPFDYDPNEKSKHKFMVQTIFAPPNTSDMEAVWKEAKPDELMDSKLRCVFEMPNENDKLNDMEPSKAVPLNASKQDGPMPKPHSVSLNDTETRKLMEECKRLQGEMMKLSEENRHLRDEGLRLRKVAHSDKPGSTSTASFRDNVTSPLPSLLVVIAAIFIGFFLGKFIL
B4 gave a Total of 1 and a Unique of 1.

B5: SNX9 (protein, UniProt Q9Y5X1 1-595, looked up)
Sorting nexin-9: MATKARVMYDFAAEPGNNELTVNEGEIITITNPDVGGGWLEGRNIKGERGLVPTDYVEILPSDGKDQFSCGNSVADQAFLDSLSASTAQASSSAASNNHQVGSGNDPWSAWSASKSGNWESSEGWGAQPEGAGAQRNTNTPNNWDTAFGHPQAYQGPATGDDDDWDEDWDGPKSSSYFKDSESADAGGAQRGNSRASSSSMKIPLNKFPGFAKPGTEQYLLAKQLAKPKEKIPIIVGDYGPMWVYPTSTFDCVVADPRKGSKMYGLKSYIEYQLTPTNTNRSVNHRYKHFDWLYERLLVKFGSAIPIPSLPDKQVTGRFEEEFIKMRMERLQAWMTRMCRHPVISESEVFQQFLNFRDEKEWKTGKRKAERDELAGVMIFSTMEPEAPDLDLVEIEQKCEAVGKFTKAMDDGVKELLTVGQEHWKRCTGPLPKEYQKIGKALQSLATVFSSSGYQGETDLNDAITEAGKTYEEIASLVAEQPKKDLHFLMECNHEYKGFLGCFPDIIGTHKGAIEKVKESDKLVATSKITLQDKQNMVKRVSIMSYALQAEMNHFHSNRIYDYNSVIRLYLEQQVQFYETIAEKLRQALSRFPVM
Molecule B5 came in with a Total of 1 and a Unique of 1.

B6: HNRNPR (protein, UniProt O43390 2-633, looked up)
Heterogeneous nuclear …: ANQVNGNAVQLKEEEEPMDTSSVTHTEHYKTLIEAGLPQKVAERLDEIFQTGLVAYVDLDERAIDALREFNEEGALSVLQQFKESDLSHVQNKSAFLCGVMKTYRQREKQGSKVQESTKGPDEAKIKALLERTGYTLDVTTGQRKYGGPPPDSVYSGVQPGIGTEVFVGKIPRDLYEDELVPLFEKAGPIWDLRLMMDPLSGQNRGYAFITFCGKEAAQEAVKLCDSYEIRPGKHLGVCISVANNRLFVGSIPKNKTKENILEEFSKVTEGLVDVILYHQPDDKKKNRGFCFLEYEDHKSAAQARRRLMSGKVKVWGNVVTVEWADPVEEPDPEVMAKVKVLFVRNLATTVTEEILEKSFSEFGKLERVKKLKDYAFVHFEDRGAAVKAMDEMNGKEIEGEEIEIVLAKPPDKKRKERQAARQASRSTAYEDYYYHPPPRMPPPIRGRGRGGGRGGYGYPPDYYGYEDYYDDYYGYDYHDYRGGYEDPYYGYDDGYAVRGRGGGRGGRGAPPPPRGRGAPPPRGRAGYSQRGAPLGPPRGSRGGRGGPAQQQRGRGSRGSRGNRGGNVGGKRKADGYNQPDSKRRQTNNQQNWGSQPIAQQPLQQGGDYSGNYGYNNDNQEFYQDTYGQQWK
In turn, B6 yielded a Total of 1 and a Unique of 1.

B7: ILF3 (protein, UniProt Q12906 1-894, looked up)
Interleukin enhancer-binding …: MRPMRIFVNDDRHVMAKHSSVYPTQEELEAVQNMVSHTERALKAVSDWIDEQEKGSSEQAESDNMDVPPEDDSKEGAGEQKTEHMTRTLRGVMRVGLVAKGLLLKGDLDLELVLLCKEKPTTALLDKVADNLAIQLAAVTEDKYEILQSVDDAAIVIKNTKEPPLSLTIHLTSPVVREEMEKVLAGETLSVNDPPDVLDRQKCLAALASLRHAKWFQARANGLKSCVIVIRVLRDLCTRVPTWGPLRGWPLELLCEKSIGTANRPMGAGEALRRVLECLASGIVMPDGSGIYDPCEKEATDAIGHLDRQQREDITQSAQHALRLAAFGQLHKVLGMDPLPSKMPKKPKNENPVDYTVQIPPSTTYAITPMKRPMEEDGEEKSPSKKKKKIQKKEEKAEPPQAMNALMRLNQLKPGLQYKLVSQTGPVHAPIFTMSVEVDGNSFEASGPSKKTAKLHVAVKVLQDMGLPTGAEGRDSSKGEDSAEETEAKPAVVAPAPVVEAVSTPSAAFPSDATAEQGPILTKHGKNPVMELNEKRRGLKYELISETGGSHDKRFVMEVEVDGQKFQGAGSNKKVAKAYAALAALEKLFPDTPLALDANKKKRAPVPVRGGPKFAAKPHNPGFGMGGPMHNEVPPPPNLRGRGRGGSIRGRGRGRGFGGANHGGYMNAGAGYGSYGYGGNSATAGYSQFYSNGGHSGNASGGGGGGGGGSSGYGSYYQGDNYNSPVPPKHAGKKQPHGGQQKPSYGSGYQSHQGQQQSYNQSPYSNYGPPQGKQKGYNHGQGSYSYSNSYNSPGGGGGSDYNYESKFNYSGSGGRSGGNSYGSGGASYNPGSHGGYGGGSGGGSSYQGKQGGYSQSNYNSPGSGQNYSGPPSSYQSSQGGYGRNADHSMNYQYR
Molecule B7 returned a Total of 1 and a Unique of 1.

B8: JPH1 (protein, UniProt Q9HDC5 1-661, looked up)
Junctophilin-1: MTGGRFDFDDGGTYCGGWEEGKAHGHGICTGPKGQGEYSGSWSHGFEVVGGYTWPSGNTYQGYWAQGKRHGLGVETKGKWMYRGEWSHGFKGRYGVRQSLCTPARYEGTWSNGLQDGYGVETYGDGGTYQGQWAGGMRHGYGVRQSVPYGMATVIRSPLRTSLASLRSEQSNGSVLHDAAAAADSPAGTRGGFVLNFHADAELAGKKKGGLFRRGSLLGSMKLRKSESKSSISSKRSSVRSDAAMSRISSSDANSTISFGDVDCDFCPVEDHVDATTTETYMGEWKNDKRNGFGVSERSNGMKYEGEWANNKRHGYGCTVFPDGSKEEGKYKNNILVRGIRKQLIPIRHTKTREKVDRAIEGAQRAAAMARTKVEIANSRTAHARAKADAADQAALAARQECDIARAVARELSPDFYQPGPDYVKQRFQEGVDAKENPEEKVPEKPPTPKESPHFYRKGTTPPRSPEASPKHSHSPASSPKPLKKQNPSSGARLNQDKRSVADEQVTAIVNKPLMSKAPTKEAGAVVPQSKYSGRHHIPNPSNGELHSQYHGYYVKLNAPQHPPVDVEDGDGSSQSSSALVHKPSANKWSPSKSVTKPVAKESKAEPKAKKSELAIPKNPASNDSCPALEKEANSGPNSIMIVLVMLLNIGLAILFVHFLT
In the case of B8, the Total came out at 1 and the Unique amounted to 1.

B9: FIGNL1 (protein, UniProt Q6PIW4 1-674, looked up)
Fidgetin-like protein 1: MQTSSSRSVHLSEWQKNYFAITSGICTGPKADAYRAQILRIQYAWANSEISQVCATKLFKKYAEKYSAIIDSDNVESGLNNYAENILTLAGSQQTDSDKWQSGLSINNVFKMSSVQKMMQAGKKFKDSLLEPALASVVIHKEATVFDLPKFSVCGSSQESDSLPNSAHDRDRTQDFPESNRLKLLQNAQPPMVTNTARTCPTFSAPVGESATAKFHVTPLFGNVKKENHSSAKENIGLNVFLSNQSCFPAACENPQRKSFYGSGTIDALSNPILNKACSKTEDNGPKEDSSLPTFKTAKEQLWVDQQKKYHQPQRASGSSYGGVKKSLGASRSRGILGKFVPPIPKQDGGEQNGGMQCKPYGAGPTEPAHPVDERLKNLEPKMIELIMNEIMDHGPPVNWEDIAGVEFAKATIKEIVVWPMLRPDIFTGLRGPPKGILLFGPPGTGKTLIGKCIASQSGATFFSISASSLTSKWVGEGEKMVRALFAVARCQQPAVIFIDEIDSLLSQRGDGEHESSRRIKTEFLVQLDGATTSSEDRILVVGATNRPQEIDEAARRRLVKRLYIPLPEASARKQIVINLMSKEQCCLSEEEIEQIVQQSDAFSGADMTQLCREASLGPIRSLQTADIATITPDQVRPIAYIDFENAFRTVRPSVSPKDLELYENWNKTFGCGK
B9 returned a Total of 1 and a Unique of 1.

B10: LEPRE1 (protein, UniProt Q32P28 23-736, looked up)
Prolyl 3-hydroxylase 1: EVESEAGWGMVTPDLLFAEGTAAYARGDWPGVVLSMERALRSRAALRALRLRCRTQCAADFPWELDPDWSPSPAQASGAAALRDLSFFGGLLRRAACLRRCLGPPAAHSLSEEMELEFRKRSPYNYLQVAYFKINKLEKAVAAAHTFFVGNPEHMEMQQNLDYYQTMSGVKEADFKDLETQPHMQEFRLGVRLYSEEQPQEAVPHLEAALQEYFVAYEECRALCEGPYDYDGYNYLEYNADLFQAITDHYIQVLNCKQNCVTELASHPSREKPFEDFLPSHYNYLQFAYYNIGNYTQAVECAKTYLLFFPNDEVMNQNLAYYAAMLGEEHTRSIGPRESAKEYRQRSLLEKELLFFAYDVFGIPFVDPDSWTPEEVIPKRLQEKQKSERETAVRISQEIGNLMKEIETLVEEKTKESLDVSRLTREGGPLLYEGISLTMNSKLLNGSQRVVMDGVISDHECQELQRLTNVAATSGDGYRGQTSPHTPNEKFYGVTVFKALKLGQEGKVPLQSAHLYYNVTEKVRRIMESYFRLDTPLYFSYSHLVCRTAIEEVQAERKDDSHPVHVDNCILNAETLVCVKEPPAYTFRDYSAILYLNGDFDGGNFYFTELDAKTVTAEVQPQCGRAVGFSSGTENPHGVKAVTRGQRCAIALWFTLDPRHSERDRVQADDLVKMLFSPEEMDLSQEQPLDAQQGPPEPAQESLSGSESKPKDEL
Take B10: the Total is listed as 1 and the Unique is recorded as 1.
